Laboratory results: patent US20240408126A1, “BACTERIAL CAPSULAR OLIGOSACCHARIDE DERIVATIVE, PREPARATION METHOD THEREFOR, PHARMACEUTICAL COMPOSITION AND USE THEREOF” (PEKING UNIVERSITY, priority 2021, published 2024)
For at least one compound, name, drawing or mass did not settle the structure.

Tests used:
nitric oxide = experiment: LPS induced NO production in RAW 264.7 cells; assay type: cell-based; conditions: compound 0.01-10 μM for 2 hours, then LPS 100 ng/mL for 24 hours, vs LPS model group
prostaglandin E2 = experiment: LPS induced PGE2 production in RAW 264.7 cells; assay type: cell-based; conditions: compound 0.01-10 μM for 2 hours, then LPS 100 ng/mL for 24 hours, vs LPS model group
IL-1β = experiment: LPS-induced release of IL-1β in RAW 264.7 cells (Elisa); assay type: cell-based; conditions: compound 0.01-10 μM for 2 hours, then LPS 100 ng/mL for 24 hours, vs LPS model group
IL-6 = experiment: LPS-induced release of IL-6 in RAW 264.7 cells (Elisa); assay type: cell-based; conditions: compound 0.01-10 μM for 2 hours, then LPS 100 ng/mL for 24 hours, vs LPS model group
TNF-α = experiment: LPS-induced release of TNF-α in RAW 264.7 cells (Elisa); assay type: cell-based; conditions: compound 0.01-10 μM for 2 hours, then LPS 100 ng/mL for 24 hours, vs LPS model group
iNOS = experiment: LPS induced expression of iNOS protein in RAW 264.7 cells (western blot); assay type: cell-based; conditions: compound 1-100 μM for 2 hours, then LPS 100 ng/mL for 24 hours
COX-2 = experiment: LPS induced expression of COX-2 protein in RAW 264.7 cells (western blot); assay type: cell-based; conditions: compound 1-100 μM for 2 hours, then LPS 100 ng/mL for 24 hours
[1] = test system: LPS-induced inflammatory factors in serum; experiment: LPS-induced cytokines in serum of sepsis mouse model (CP-1); assay type: in vivo, male C57BL/6 mice; conditions: 10 mg/kg intraperitoneal, two times; LPS 25 mg/kg; serum after 12 hours; FIG. 6
[2] = test system: lung injury caused by LPS; experiment: HE staining and inflammatory index analysis of lung, LPS mouse model; assay type: in vivo, male C57BL/6 mice; conditions: two times, LPS 45 mg/kg, after 24 hours

| SMILES | release of nitric oxide (nitric oxide) | release of prostaglandin E2 (prostaglandin E2) | release of IL-1β (IL-1β) | release of IL-6 (IL-6) | release of TNF-α (TNF-α) | expression of intracellular iNOS protein (iNOS) | expression of intracellular COX-2 protein (COX-2) | effect on LPS-induced inflammatory factors in serum [1] | lung histopathology (HE staining) ([2]; 10 mg/kg intraperitoneal) | lung histopathology (HE staining) ([2]; 30 mg/kg intraperitoneal) |
| --- | --- | --- | --- | --- | --- | --- | --- | --- | --- | --- |
| CC(=O)NC1[C@H](OC2[C@@H](O[C@@H]3C(NC(C)=O)C(O)OC(CO)[C@@H]3O)OC(C(=O)O)[C@H](O)[C@@H]2O)OC(CO)[C@@H](O)[C@@H]1O[C@@H]1OC(C(=O)O)[C@@H](O)[C@H](O)C1O (stereo partly drawn) [CP-1, β-D-glucopyranuronic acid-(1→3)-2-deoxy-2-acetylamino-β-D-glucopyranosyl-(1→2)-α-D-galactopyranoic acid-(1→3)-2-deoxy-2-acetylamino-α,β-D-galactopyranoside] | inhibit the release of nitric oxide in a dose-dependent manner | inhibit the release of prostaglandin E2 in a dose-dependent manner | inhibit the release of IL-1β, IL-6 and TNF-α in a dose-dependent manner | inhibit the release of IL-1β, IL-6 and TNF-α in a dose-dependent manner | inhibit the release of IL-1β, IL-6 and TNF-α in a dose-dependent manner | inhibit the expression of intracellular iNOS and COX-2 protein in a dose-dependent manner | inhibit the expression of intracellular iNOS and COX-2 protein in a dose-dependent manner | inhibitory effect | can significantly alleviate lung injury caused by LPS and maintain the basic morphology of lung tissue |  |
| C[C@@H]1C[C@H]2[C@@H]3CCC4=CC(=O)C=C[C@]4(C)[C@@]3(F)[C@@H](O)C[C@]2(C)[C@@]1(O)C(=O)CO [dexamethasone, reference compound] |  |  |  |  |  |  |  |  |  | can also achieve similar effects, but the morphology is not as good as CP-1 |
| CC(=O)NC1[C@H](OC2[C@@H](O[C@@H]3C(NC(C)=O)C(O)OC(CO)[C@@H]3O)OC(C(=O)N[C@H](C(=O)O)[C@@H](C)O)[C@H](O)[C@@H]2O)OC(CO)[C@@H](O)[C@@H]1O[C@@H]1OC(C(=O)O)[C@@H](O)[C@H](O)C1O (some centres unmarked) [CP-2] | inhibit the release of nitric oxide in a dose-dependent manner | inhibit the release of prostaglandin E2 in a dose-dependent manner | inhibit the release of IL-1β, IL-6 and TNF-α in a dose-dependent manner | inhibit the release of IL-1β, IL-6 and TNF-α in a dose-dependent manner | inhibit the release of IL-1β, IL-6 and TNF-α in a dose-dependent manner | inhibit the expression of intracellular iNOS and COX-2 protein in a dose-dependent manner | inhibit the expression of intracellular iNOS and COX-2 protein in a dose-dependent manner |  |  |  |
